Results are given as percent effect. The controls that fix the scale are not given in the record; negative values are as filed. The compounds are a random part of those screened. A dash means the value is not listed here; it may have been measured.

Sequences of proteins named here, by UniProt entry; tags and fusion partners are left off.
UniProt P9WNZ1, whole entry: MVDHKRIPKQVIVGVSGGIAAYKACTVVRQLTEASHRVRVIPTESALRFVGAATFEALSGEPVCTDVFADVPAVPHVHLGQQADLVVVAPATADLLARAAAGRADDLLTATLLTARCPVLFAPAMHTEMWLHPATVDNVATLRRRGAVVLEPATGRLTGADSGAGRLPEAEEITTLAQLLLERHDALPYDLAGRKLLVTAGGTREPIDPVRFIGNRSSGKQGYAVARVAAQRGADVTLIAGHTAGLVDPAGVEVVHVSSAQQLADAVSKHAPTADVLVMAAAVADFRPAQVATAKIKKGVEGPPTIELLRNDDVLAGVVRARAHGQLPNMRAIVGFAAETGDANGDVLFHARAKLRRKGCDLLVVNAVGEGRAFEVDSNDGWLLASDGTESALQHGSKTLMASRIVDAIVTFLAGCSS
UniProt P9WFT3, whole entry: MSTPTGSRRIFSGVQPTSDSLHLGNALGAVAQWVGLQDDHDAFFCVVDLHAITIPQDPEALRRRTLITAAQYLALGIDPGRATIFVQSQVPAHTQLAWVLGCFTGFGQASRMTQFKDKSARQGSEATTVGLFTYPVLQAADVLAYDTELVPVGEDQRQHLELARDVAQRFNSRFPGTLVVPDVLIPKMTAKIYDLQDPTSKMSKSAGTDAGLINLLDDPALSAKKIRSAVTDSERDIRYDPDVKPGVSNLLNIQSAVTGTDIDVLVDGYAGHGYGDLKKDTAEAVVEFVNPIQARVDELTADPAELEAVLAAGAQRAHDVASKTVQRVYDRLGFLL

A: 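Enzyme assay of CoaBC with a phosphate dye (Biomol Green) read at 650 nm. Target: Coenzyme A biosynthesis protein CoaBC, Mycobacterium tuberculosis (UniProt P9WNZ1). Tested at 30 µM. Higher reads as stronger inhibition, judged from the few compounds that gave an IC50. Most strong results did not repeat in a second test. About 67,000 compounds were tested under these conditions; 0.06% (about 40) showed 50% or more at least once.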
B: 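Tryptophan-tRNA ligase, Mycobacterium tuberculosis (UniProt P9WFT3). Enzyme assay of tryptophanyl-tRNA synthetase; the read-out is not stated. Tested at 10 µM. Higher most likely means stronger inhibition; the record gives no direction and few retests gave an IC50. Size under these conditions: about 65,000 compounds, about 64 of them at 50% or above in at least one test.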

compound	A	B
CC(NC(=O)N1CCc2ccccc21)c1nncn1C (configuration not stated)	1.829	3.709
Cn1nccc1C(=O)N1CCOC(Cc2cccnc2)C1 (configuration not stated)	-11.92	3.172
CC(C)(C)[S+]([O-])CCNC(=O)c1cccc2ncccc12 (configuration not stated)	2.4	0.6261
O=C(c1ccco1)N1C[C@H]2CCCN(Cc3ccoc3)[C@H]2C1	7.143	1.395
N#CCc1ccc(OCC(=O)NS(=O)(=O)c2ccc(Br)s2)cc1	-2.593	1.5
OC1(CNCc2ccc(F)c(C(F)(F)F)c2)CCSCC1	0.641	-1.675
O=C(NCc1ccnc(O)c1)NCC1CCCC1	11.69	-3.269
OCc1ccccc1CNCC1CNc2ccnn2C1 (configuration not stated)	9.545	-6.619
COC(=O)c1ccc(CNC(C)(C)c2ccccc2OC)o1	6.374	-1.009
Cc1csc(N2CCN(C(=O)C(C(C)C)n3cncn3)CC2)n1 (configuration not stated)	-0.2551	-11.87
Cn1ncnc1CNC1CCCc2cc(F)ccc21 (configuration not stated)	0.4878	-3.311
CN1CCN(Cc2cscn2)CC(C(=O)N(C)C)C1 (configuration not stated)	4.404	1.586
CC(C)(C)n1ncc2c1CCCC2NCc1ccc2c(c1)CCO2 (configuration not stated)	-1.04	-3.661
COc1cc(CNC(=O)Nc2nncs2)ccc1O	2.236	0.1651
CC(=O)N1CCCC(c2nc(-c3ccccc3)c[nH]2)C1 (configuration not stated)	-0.2141	-7.216
COc1cccc(COCC(=O)N2CCCC(N3CCCC3)CC2)c1 (configuration not stated)	-0.266	-2.83
O=C(c1ccccn1)N1CCC2(CNS(=O)(=O)c3cnccc3O2)C1 (configuration not stated)	2.632	17.55
CC(CS(C)(=O)=O)N(C(=O)CCc1ccc(Cl)s1)C1CC1 (configuration not stated)	0.8464	-1.837
O=S(=O)(Cc1ccccc1)NCc1nnc2n1CCC2	1.772	0.7498
Cc1n[nH]c(C2CN(CC(=O)NCCc3ccc(F)cc3)CCO2)n1 (configuration not stated)	4.225	1.414
Cc1cnn(CC2CCCCN2C(=O)Cc2c(C)noc2C)c1 (configuration not stated)	-3.294	-4.919
Cc1cnn(CCNC(C)c2nnc(-c3cccc(Cl)c3)o2)c1 (configuration not stated)	-4.274	-4.211
Cc1ncc(CN2CCCC(c3cc(C(F)(F)F)[nH]n3)C2)s1 (configuration not stated)	2.35	-4.708
CCN(CC1CCOC1)C(=O)c1cnc2onc(C)c2c1 (configuration not stated)	3.836	-5.512
O=c1c(Cc2ccccc2)c(O)ccn1Cc1cccs1	-5.293	22.3
CN(C)[C@@H]1CCN(C(=O)c2ccccn2)[C@H]1Cc1ccncc1	5	-5.317
Cn1nc2c(cc1=O)CN(CCN1CCCC1=O)CC2	1.513	-5.932
CCC(=O)N1CCN(C(=O)Nc2cccc(F)c2)[C@H]2CS(=O)(=O)C[C@H]21	14.4	-1.878
CC(C)c1nnc(NC(=O)N(C)Cc2ccncc2)s1	5.724	2.581
CSCCC(C)NC(=O)N(C)Cc1cc(Cl)cn1C (configuration not stated)	-	-4.644
Cc1cc(CNCc2c(C)n(CC(C)C)c3ccccc23)[nH]n1	15.38	-0.25
COc1c(CNCc2ccnc(N3CCCC3)c2)c(C)nn1C	-0.2611	-4.386
COc1ccc2cccc(CC(=O)NCCc3n[nH]c(=O)[nH]3)c2c1	-	-1.651
Cc1cnn(C(C)C2CC2)c1NC(=O)c1ccco1 (configuration not stated)	-7.54	-3.159
CC(C)(C)CC(=O)N1CSCC1C(=O)NC1=NCCS1 (configuration not stated)	11.78	4.161
CN(C)S(=O)(=O)N1CCC(c2c(C(N)=O)sc3ccccc23)C1 (configuration not stated)	2.427	-3.312
CC(C)c1nc(CN2CCOC(CNc3cccnn3)C2)cs1 (configuration not stated)	10.81	-0.142
COC(=O)CNC(=O)c1nc(Br)sc1C(C)C	-8.019	0.3079
CC(C)C(NC(=O)Nc1ccccn1)c1cccs1 (configuration not stated)	0.129	14.41
Cc1noc(C2CCC3(CCN(C(=O)C4CCOCC4)CC3)O2)n1 (configuration not stated)	-7.16	-4.446
Cc1nccn1CCCN1CCCC(c2ccccc2)C1 (configuration not stated)	-3.236	1.363
COc1ccc(NC(=O)CCN2CC=C(c3cnn(C)c3)CC2)c(C)c1	3.396	0.4082
Cc1nc(C2CCN(C(=O)c3ccc(Cl)s3)CC2)cc(=O)[nH]1	-2.122	4.848
Cc1cccc(NC(=O)[C@@H]2CCCN2CC(=O)Nc2ccccc2)n1	7.438	4.272
CCn1cc(CN2CCCC(c3[nH]ncc3-c3ccc(C)cc3)C2)cn1 (configuration not stated)	5.696	-0.6798
CC1(NC(=O)Cc2csc(-c3cccc(Cl)c3)n2)CCS(=O)(=O)C1 (configuration not stated)	3.969	1.799
CN(C)c1ccc(NC(=O)c2cccc(N(C)C)c2)nc1	-4.785	0.09709
Cc1ccc(C2(O)CCN(C(=O)Cn3cc(C)c(=O)[nH]c3=O)CC2)nc1	7.443	9.69
O=C(Cc1ccsc1)N1CCCC2(COCCN(CC3CC3)C2)C1 (configuration not stated)	-0.9346	-6.202
NC(=O)C1=NC2=NS(=O)(=O)c3ccccc3N2N1Cc1ccccc1Cl	1.845	3.762
COCC1COCCC12CCN(C(=O)CCc1ccccc1C)CC2 (configuration not stated)	1.754	-0.1383
COCC1CN(Cc2cc(C)on2)Cc2cn(C)nc21 (configuration not stated)	-0.6345	3.882
CCNc1cc2c(nn1)CCN(C(=O)c1ccc(-n3cccn3)nc1)C2	9.912	1.071
Cn1ccnc1-c1noc(NCc2ccc3c(c2)OCCO3)n1	-0.2481	-3.744
CCCn1ccnc1CN1C[C@@H](NC(C)=O)[C@H](c2ccc(C)cc2)C1	3.99	2.571
Cc1cc(C)nc(CCNC(=O)C(c2ccc(F)cc2)N(C)C)n1 (configuration not stated)	4.516	-4.194
CCCn1ccnc1CN1CCCC1c1ccccn1 (configuration not stated)	4.099	-0.4341
O=C1N(Cc2cccnc2)C[C@H]2CN(C3CCOCC3)CCN12	16.7	-1.907
Cc1cc(C2CCCN(CC(=O)N3CCCc4ccccc43)C2)n[nH]1 (configuration not stated)	6.497	-1.738
CCS(=O)(=O)N1CCC2(CCN(Cc3ccc(C)o3)C2)C1 (configuration not stated)	-2.349	5.838

5 of the entries, repeated:

With CC(NC(=O)N1CCc2ccccc21)c1nncn1C (configuration not stated) the screen gave A: 1.829%; B: 3.709%.
With Cc1cc(C)nc(CCNC(=O)C(c2ccc(F)cc2)N(C)C)n1 (configuration not stated) the screen gave A: 4.516%; B: -4.194%.
With CC(=O)N1CCCC(c2nc(-c3ccccc3)c[nH]2)C1 (configuration not stated) the screen gave A: -0.2141%; B: -7.216%.
With O=C(c1ccccn1)N1CCC2(CNS(=O)(=O)c3cnccc3O2)C1 (configuration not stated) the screen gave A: 2.632%; B: 17.55%.
With Cc1n[nH]c(C2CN(CC(=O)NCCc3ccc(F)cc3)CCO2)n1 (configuration not stated) the screen gave A: 4.225%; B: 1.414%.

Data taken from ChEMBL document CHEMBL3988442, “University of Dundee, Small-Polar-MMV Screening Library” (2021).